Experimental data reported in article doi:10.1101/2020.06.02.095570 (bioRxiv, 2020).
No constants are given. Whether binding was seen depends on the method and setting.

By UniProt entry, the sequences of proteins in these tests, tags left out. Residues count along the entry.
UniProt Q96E22, residues 73-293: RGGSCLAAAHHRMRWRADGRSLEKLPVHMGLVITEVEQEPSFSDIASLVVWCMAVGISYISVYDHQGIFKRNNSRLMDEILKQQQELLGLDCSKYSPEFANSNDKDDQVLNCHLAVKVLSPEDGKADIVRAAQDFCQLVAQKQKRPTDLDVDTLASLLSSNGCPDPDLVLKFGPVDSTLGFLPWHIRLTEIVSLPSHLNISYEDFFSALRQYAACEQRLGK

Molecular target: soluble Nogo-B receptor, cytosolic domain (sNgBR, residues 73*-293*) (human) (UniProt Q96E22)
Assay: cross-linking

soluble Nogo-B receptor, cytosolic domain (sNgBR, residues 73*-293*) (from UniProt Q96E22 73-293) (domain or fragment)
binding: no binding (tested: 8 μM shcis-PT)
